# In PubChem BioAssay AID1347076 (National Center for Advancing Translational Sciences (NCATS), 2019):
# The campaign covered roughly 400,000 compounds. About 13,000 (3.2%) were called active. Inconclusive means that the source gave no clear call. Such entries were picked first, then a sample of the others. The call rests on the fitted dose curve; in most records, active means well fitted cell-killing curve with a large enough effect; inconclusive means small, poorly fitted or top-dose-only effect, or effect the other way; inactive means flat fitted curve, though single readings scatter. Where the call is inconclusive, the potency comes from a doubtful curve fit.
# Assay: qHTS assay for MDR1-selective chemotherapeutics: Primary screen using the drug-selected MDR subline cells KB-V1; further: nearly all actives have a fitted effect of over 60% in size
# Conditions: KB-V1 MDR cells viability, CellTiter-Glo, 72 h; activity change, negative = cytotoxicity: at 46.1 µM (top of the series)
# Procedure, shortened: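 KB-V1 cells (P-gp-expressing MDR subline of KB-3-1) in phenol-red-free DMEM with 10% FBS were exposed to library compounds over a concentration series for 72 h at 37 degrees C. Viability read by CellTiter-Glo luminescence; concentration-effect curves fitted after normalization.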
# On the % scale 0 is the no-effect control and ±100 the full control effect; potency means the concentration at half of the fitted maximal effect.
Structure (SMILES),Potency,"activity change, negative = cytotoxicity"
COc1cccc(NC(=O)COC(=O)c2c(NC(C)=O)sc(C)c2C)c1,"inconclusive: 20.6 µM [cytotoxic, single point]",
CC(=O)NC(c1ccccc1)c1nc(-c2cccc(F)c2)cs1 (centres undefined),inactive,
O=C(Nc1ccccc1)Nc1ccc(F)cc1F,inactive,
CCOC(=O)c1nnn(CC(=O)N2N=C(c3cc(C)ccc3C)CC2c2ccc(OC)cc2)c1C(=O)OCC (centres undefined),"inconclusive: 6.51 µM [cytotoxic, partial curve]",
COc1cccc(C(=O)Nc2ccc(S(=O)(=O)N(Cc3ccccc3)c3ccccc3)cc2)c1,"inconclusive: 8.2 µM [cytotoxic, partial curve]",
COc1ccc(S(=O)(=O)NC(C)C(=O)N2CCCC2)cc1C (centres undefined),"inconclusive: 29.1 µM [rising, single point]",
CCOC(=O)c1sc(NC(=O)CSc2nc3cccnc3n2C)nc1C,inactive,
CC(=O)c1ccc(N2CCN(Cc3nc4ccccc4[nH]3)CC2)cc1,"inconclusive: 18.4 µM [cytotoxic, single point]",
COC(=O)[C@@H](NS(=O)(=O)c1cc(Br)ccc1Br)C(C)C,inactive,
O=C(CSc1nnc2scc(-c3ccccc3)n12)Nc1nsc(-c2ccccc2)n1,inactive,
COCCn1c(SCC(=O)c2c(-c3ccccc3)n(C)c3ccccc23)nnc1-c1ccncc1,"inconclusive: 29.1 µM [cytotoxic, single point]",
CC(=O)c1cccc(NC(=S)NCCc2ccc(F)cc2)c1,"inconclusive: 29.1 µM [cytotoxic, single point]",
Cc1cc(NS(=O)(=O)c2ccc(C(C)C)cc2)no1,"inconclusive: 18.4 µM [rising, partial curve]",
CCOC(=O)c1sc(NC(=O)CCN2CCC(C)CC2)c(C(=O)OCC)c1C,"inconclusive: 9.2 µM [cytotoxic, partial curve]",
COc1cccc(/C=N/Nc2cc(Cl)nc(C)n2)c1O,"inconclusive: 16.4 µM [cytotoxic, single point]",
Cc1cc(S(=O)(=O)N2CCCC2)ccc1OCC(=O)NCc1ccccn1,"inconclusive: 16.4 µM [cytotoxic, partial curve, poor fit]",
Cc1cccc(C(=O)NNC(=S)NC(=O)c2cccs2)c1,"inconclusive: 4.11 µM [cytotoxic, partial curve]",
Cc1ccc(N(CC(=O)Nc2cc(Cl)ccc2Oc2ccccc2)S(C)(=O)=O)c(C)c1,"inconclusive: 18.4 µM [cytotoxic, single point]",
COC(=O)c1cn(C(=O)c2cc(OC)c(OC)c(OC)c2)c2ccccc12,"inconclusive: 16.4 µM [rising, single point]",
O=C(c1ccc(S(=O)(=O)c2cccc(Cl)c2)c([N+](=O)[O-])c1)N1CCN(c2ccccn2)CC1,"inconclusive: 18.4 µM [cytotoxic, single point]",
COCCOc1cc(NC(=O)c2ccccc2)c(Cl)cc1Cl,"inconclusive: 29.1 µM [cytotoxic, single point]",
N#CC1=C(N)Oc2cc3ccccc3cc2C1c1cccnc1 (centres undefined),"inconclusive: 3.66 µM [cytotoxic, full curve]",
Cc1ccc(OCc2n[nH]c(=S)n2N)cc1C,inactive,

Structure (SMILES),Potency,"activity change, negative = cytotoxicity"
COc1ccc(C(=O)/C=C/C(=O)N(Cc2ccccc2OC)C(C(=O)NC2CCCCC2)c2ccncc2)c(O)c1 (centres undefined),"inconclusive: 29.1 µM [cytotoxic, single point]",
C#CC(c1ccccc1)(c1ccccc1)n1ccnc1,"inconclusive: 20.6 µM [cytotoxic, partial curve]",
COc1ccc(NC(=O)C2=C(C)Nc3ncnn3C2c2ccc[nH]2)cc1 (centres undefined),"inconclusive: 29.1 µM [rising, single point]",
CC1(C(=O)NS(=O)(=O)c2ccc(C#N)cc2)CCN1C(=O)Cc1ccsc1 (centres undefined),inactive,
O=c1[nH]c(CNCc2cccnc2)nc2ccccc12,"inconclusive: 16.4 µM [rising, partial curve, poor fit]",
CC1(C(=O)NCc2ccccc2)CSCC(=O)N1Cc1cccc(C(F)(F)F)c1 (centres undefined),"inconclusive: 23.1 µM [cytotoxic, partial curve, poor fit]",
CC(C)(C)n1nnnc1C(c1ccncc1)N1CCCCCC1 (centres undefined),"inconclusive: 20.6 µM [cytotoxic, partial curve, poor fit]",
CC(=O)/C=C\c1cn(-c2ncc(C(F)(F)F)cc2Cl)c2ccccc12,"inconclusive: 23.1 µM [cytotoxic, single point]",
Oc1ccc(C[C@@H](CN2CCCC2CN2C(=S)NC[C@@H]2Cc2ccccc2)N2C[C@H](Cc3ccccc3)N(CC3CCCCCC3)C2=S)cc1 (some centres undefined),"inconclusive: 5.8 µM [cytotoxic, full curve]",
CCC(=O)Nc1ccccc1-c1nc2ccccc2n(C(CC)C(=O)Nc2cccc(Cl)c2)c1=O (centres undefined),"inconclusive: 23.1 µM [cytotoxic, partial curve]",
COc1cccc(COC(=O)CCNC(=O)c2ccc(Cl)cc2)c1OC,inactive,
CCOC(=O)C1=C(c2ccccc2)NC(=S)NC1c1ccc(Cl)cc1 (centres undefined),"inconclusive: 6.51 µM [cytotoxic, partial curve]",
CCC(=O)c1ccc(OCC(=O)N2CCN(c3ncccn3)CC2)cc1,inactive,
CN(Cc1cccnc1)C(=O)CC1C(=O)NCCN1Cc1ccc(-c2ccccc2)cc1 (centres undefined),"inconclusive: 20.6 µM [rising, single point]",
Cn1c(CNC(=O)CNC(=O)c2ccc(C(C)(C)C)cc2)cc(=O)n(C)c1=O,,inconclusive: -2.99%
Cc1c(C(=O)N(C)C)sc2c1c(=O)n(-c1ccc(F)cc1)c(=O)n2Cc1ccccc1C#N,inactive,
COC(=O)c1cccc(NC(=O)CSc2nnc(C)n2C)c1,"inconclusive: 29.1 µM [rising, single point]",
COc1ccc(CCN2C(=O)c3[nH]nc(-c4ccccc4O)c3C2c2ccccc2)cc1 (centres undefined),"inconclusive: 18.4 µM [cytotoxic, single point]",
COCCNC(=S)N1CCC(C(=O)c2ccc(F)cc2)CC1,"inconclusive: 9.2 µM [cytotoxic, partial curve]",
CC(C)CN(C(=O)c1cccc(S(=O)(=O)N2CCN(c3ccc(F)cc3)CC2)c1)C1CCS(=O)(=O)C1 (centres undefined),"inconclusive: 10.3 µM [cytotoxic, partial curve]",
CCOC(=O)c1ccc(Nc2nnc(C)c3ccccc23)cc1,inactive,
O=C(c1cccs1)N(Cc1cccnc1)c1nc2c(F)cc(F)cc2s1,"inconclusive: 29.1 µM [cytotoxic, single point]",
COc1ccc(/C=N/NC(=O)CCn2c3ccccc3c3ccccc32)cc1O,inactive,

# As entered above:
# `O=C(Nc1ccccc1)Nc1ccc(F)cc1F` – Potency: inactive
# `COC(=O)c1cn(C(=O)c2cc(OC)c(OC)c(OC)c2)c2ccccc12` – Potency: inconclusive: 16.4 µM [rising, single point]
# `O=C(c1ccc(S(=O)(=O)c2cccc(Cl)c2)c([N+](=O)[O-])c1)N1CCN(c2ccccn2)CC1` – Potency: inconclusive: 18.4 µM [cytotoxic, single point]

# More structures follow:

Structure (SMILES),Potency,"activity change, negative = cytotoxicity"
Cc1ccc(N(Cc2cc3cccc(C)c3[nH]c2=O)S(=O)(=O)c2ccccc2)c(C)c1,inactive,
O=C(O)c1cc2ccc(O)cc2oc1=O,"inconclusive: 29.1 µM [rising, single point]",
Cc1ccc(NC(=O)CN2C(=O)COc3ccc(S(=O)(=O)N4CCOCC4)cc32)cc1F,"inconclusive: 23.1 µM [cytotoxic, partial curve, poor fit]",
Nc1c(C(=O)O)nnn1Cc1ccccc1,inactive,
Cc1cccc(C2NC(c3cccc(C)c3)C(C)C(=O)C2C)c1 (centres undefined),inactive,
CCCCCCCCNC(=O)/C(C#N)=C/c1ccccc1[N+](=O)[O-],active: 16.4 µM,
O=C(c1ccccc1)N1CCN(Cc2ccccc2C(F)(F)F)CC1,"inconclusive: 32.6 µM [cytotoxic, partial curve, poor fit]",
COc1cc(CNCc2ccco2)ccc1OCc1ccccc1,"inconclusive: 10.3 µM [cytotoxic, partial curve]",
Cc1ccc2cc(C)c3nnc(SCC(=O)N4CCN(C(=O)c5ccco5)CC4)n3c2c1,inactive,
CCN(CC)S(=O)(=O)c1nnc(NC(=O)c2ccc(Br)cc2)s1,inactive,
CCCOc1ccc(C2C(C(=O)c3ccc(C)o3)=C(O)C(=O)N2Cc2ccco2)cc1 (centres undefined),active: 18.4 µM,
C[n+]1ccccc1/C=C/c1ccc([N+](=O)[O-])cc1,"inconclusive: 29.1 µM [rising, single point]",
Cc1cc(NC(=O)Cn2c(=O)oc3cc(S(=O)(=O)N4CCCC4)ccc32)ccc1Br,inactive,
O=C1N=C(N2CCN(c3cccc4ccccc34)CC2)S/C1=C/c1cccs1,inactive,
Cc1ccc(C)c(S(=O)(=O)Nc2cc(SCC(=O)O)c(O)c3ccccc23)c1,"inconclusive: 20.6 µM [cytotoxic, single point]",
O=C(Nc1ccc(Cl)cc1)OCCN1CCOCC1,inactive,
COc1ccc(-c2[nH]c(-c3ccc(SC)cc3)nc2SCC(=O)Nc2nccs2)cc1,"inconclusive: 14.6 µM [cytotoxic, partial curve]",
COc1ccc(NC(=O)NC2(C(=O)N3CCCC3)CCCCC2)cc1,"inconclusive: 6.51 µM [rising, partial curve]",
O=C(NCC1CCCO1)c1c(O)c2ccccc2[nH]c1=O (centres undefined),"inconclusive: 13 µM [cytotoxic, partial curve]",
Cc1cccc(C)c1OCCCCc1c(C)n[nH]c1C,"inconclusive: 20.6 µM [cytotoxic, single point]",
CCOC(=O)N1CCN(C(=O)C[C@@H]2C[C@@]3(C(=O)OCC)CCCC=C3N(CCC3=CCCCC3)C2=O)CC1,"inconclusive: 0.461 µM [cytotoxic, full curve]",
COc1ccc(CCNC(=O)C2CCCN(S(=O)(=O)c3ccc4c(c3)oc(=O)n4C)C2)cc1OC (centres undefined),inactive,
CCc1ccccc1NC(=S)NCCSc1ccc(Cl)cc1,"inconclusive: 25.9 µM [cytotoxic, single point]",
